{"source": "patent US9822136B2", "about": "“Chemical inhibitors of sebocyte function” (priority 2016, dated 2017)", "assay": "Skin temperature of human forehead after topical application", "type": "in vivo", "details": "for Skin temperature of human forehead: 1-7 20 mg/mL", "data": [{"smiles": "CCCCCCCP(=O)(C(C)C)C(C)C", "note": "[Code 1-7, 1-diisopropylphosphorylheptane]", "values": [{"measurement": "Skin temperature of human forehead", "setting": "0 min", "value": 37.4, "unit": "°C"}, {"measurement": "Skin temperature of human forehead", "setting": "15 min", "value": 37.5, "unit": "°C"}, {"measurement": "Skin temperature of human forehead", "setting": "30 min", "value": 37.1, "unit": "°C"}, {"measurement": "Skin temperature of human forehead", "setting": "45 min", "value": 37.2, "unit": "°C"}, {"measurement": "Skin temperature of human forehead", "setting": "60 min", "value": 37.1, "unit": "°C"}, {"measurement": "Skin temperature of human forehead", "setting": "Before", "value": 37.4, "unit": "°C"}, {"measurement": "Effect on skin temperature", "setting": "forehead, 20 mg/mL", "value": "not affected"}]}]}
